Laboratory results published in patent US20220331448A1, “COMPOSITIONS AND METHODS FOR TREATING SUCCINIC SEMIALDEHYDE DEHYDROGENASE DEFICIENCY (SSADHD)” (Washington State University, priority 2018, published 2022).

Test system: aldh5a1+/+ and aldh5a1−/− mice
Test: Time to immobilization (sedation) after acute i.p. bumetanide
Type: in vivo
Details: 100 mg/kg i.p.
From the text: FIGS. 5A-5C—Intracellular chloride homeostasis, GABAergic neurotransmission and bumetanide in SSADHD (for abbreviations, see FIG. 1). (FIG. 5A) Schematic diagram of membrane ion transport and mechanism of action of bumetanide. (FIG. 5B) NKCC1 and KCC2 gene expression in the hypothalamus of aldh5a1+/+(n=5) and aldh5a1−/− (n=5) mice collected at postnatal day-of-life 20. Expression data were obtained using q-RT-PCR, validated pathway plates from Bio-Rad. (FIG. 5C) Time to sedation following acute dosing of 100 mg/kg bumetanide. Animals were evaluated at day of life (DOL) 20 and 24 for seizure events, and the time to immobilization (sedation) determined by visual recording using Noldus technology (see text). Bumetanide was administered intraperitoneally to the subject mice after 20 min. of initial observational recording, followed by an additional 20 minutes of recording. Total number of seizures was quantified in 5 min blocks of the total 40 min. recording period. Bumetanide was obtained from Enzo Life Sciences, Inc. (Farmingdale, N.Y., USA) and aseptically dissolved in DMSO vehicle. […] Abbreviations employed: n, number of animals studied; DOL, day of life; sec, seconds; min, minutes.
The potential therapeutic role of NKCC1 inhibition in SSADHD was next examined. […] Applicants' design was to quantify generalized tonic-clonic seizures in 5 minute epochs for 40 minutes in continuum. […]

For `CCCCNc1cc(C(=O)O)cc(S(N)(=O)=O)c1Oc1ccccc1` [bumetanide], the “resistance to sedation in older (DOL 24) vs DOL 20 aldh5a1−/− mice” value was “about 3 fold”.
